These results are taken from PubChem BioAssay AID2685 (National Center for Advancing Translational Sciences (NCATS), 2010).

A short description of the experiment: qHTS Assay for Lipid Storage Modulators in Drosophila S3 Cells.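 As to cell number change: cells counted by Cell Tracker Red CMTPX staining in the red channel.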 The settings on record: BODIPY lipid droplet fluorescence, 18-24 h; for cell number change: measured here: cell count max response, cells fed with added oleic acid. Summed up:
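Drosophila S3 cells loaded with oleic acid (400 uM, as added) and compounds at several concentrations; lipid droplets imaged by 488-nm laser-scanning cytometry, 500–530 nm intensity and object ratio to cell channel. Percent activity normalized to 20 uM Triacsin C.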
In general terms: Quantitative high-throughput screening tests each substance at several concentrations.

Setting [1] is: measured here: cell number channel AC50, cells fed with added oleic acid.
Setting [2] is: measured here: lipid fluorescence (Fed channel) AC50, cells fed with added oleic acid.

The other results are listed elsewhere or left out. These are further read-outs of the screen, such as a control signal, another cell line or another target. No call is given for them. Compounds called inactive in the main read-out are mostly missing here. Words in brackets tell the shape of the fitted curve; partial curves, single points and poor fits give uncertain potencies.

`COC(=O)C1C(=O)c2c([nH]c(C(=O)OCCSC)c2C)CC1C` (stereo unspecified): the cell number change is -37.8%. In addition, under setting [1], the AC50 (usually the midpoint of the concentration-response curve, whichever way the signal moves) was 14.6 µM [falling, partial curve, poor fit]. Besides, under setting [2], the AC50 was 13 µM [falling, partial curve].
As for `CC[n+]1c(C)sc2sc3ccccc3c21`, the cell number change was -53.9%. Besides, the AC50 under setting [1] is 29.1 µM [falling, single point]. Moreover, under setting [2], the AC50 is 0.82 µM [falling, full curve].
`CC(=O)Nc1ccc(NC(=O)CSc2ccc(-c3cccs3)nn2)cc1`: the cell number change was -10.8%.
Regarding `CN1CCN(C(=O)CCCN2C(=O)/C(=C/c3cccc(Br)c3)SC2=S)CC1`, the cell number change is -3.23%.
In the case of `CCOc1ccccc1N1CC(O)=C(c2nc3ccccc3s2)C1=N`, under setting [2], the AC50 was 2.31 µM [rising, partial curve].
Turning to `CC(C)c1ccc(-c2nnc(N)s2)cc1`, the cell number change came out at 2.01%. For the same compound, the AC50 under setting [2] was 2.59 µM [rising, full curve].
Regarding `Nc1nonc1C(=O)NCCNCc1c(OCc2ccccc2F)ccc2ccccc12`, the cell number change is -3.56%.
Take `Cc1ccc(C)c(OCCCN2CCNCC2)c1`: the cell number change worked out at 27.2%. Moreover, under setting [1], the AC50 was 0.13 µM [rising, full curve, poor fit]. For the same compound, under setting [2], the AC50 is 0.82 µM [rising, full curve].
Turning to `COc1ccc(S(=O)(=O)N2CCCOC2CNC(=O)C(=O)NCc2cccnc2)cc1` (stereo unspecified), the cell number change came out at 7.04%. Also, under setting [2], the concentration at half-maximal activity (AC50) was 6.51 µM [rising, partial curve].
As for `COc1ccc(N2CC(C)Cn3c2nc2c3c(=O)n(Cc3ccc(F)cc3)c(=O)n2C)c(OC)c1` (stereo unspecified), the cell number change was 2.17%. The AC50 under setting [2] is 2.06 µM [rising, partial curve].
Take `CCCS(=O)(=O)c1c(S(=O)(=O)CCC)c2ccc(C(N)=O)cn2c1C(=O)c1ccccc1`: the cell number change was 13.3%. In addition, under setting [2], the AC50 is 0.58 µM [falling, single point].
Take `N=c1sccn1CC(=O)Nc1ccccc1Oc1ccccc1`: the cell number change is 0.583%.
As for `CCCc1nc2oc3c(OCC)ncnc3c2c2c1COC(C)(C)C2`, the cell number change is 55%. Also, under setting [1], the AC50 was 1.03 µM [rising, partial curve].
Turning to `O=C(NCc1ccccn1)c1cccc(NS(=O)(=O)c2ccc(Br)cc2)c1`, the cell number change is -8.71%.
As for `CCC/C(O)=C1\C(=O)CC(c2ccccc2)CC1=NCCc1c(C)[nH]c2ccc(C)cc12` (stereo unspecified), the cell number change is -11.5%.
Still for that read-out and setting: as for `CN1/C(=C\C(=O)c2oc3ccccc3c2N)C(C)(C)c2ccccc21`, the figure is 21.1%.
For `Cc1ccc(S(=O)(=O)N2CC(C)C(=O)CC2C)cc1` (stereo unspecified), the cell number change turned out to be 23.8%. The AC50 under setting [2] was 0.651 µM [falling, single point].
In the case of `Cc1ncsc1C(=O)N1N=C2/C(=C/c3ccccc3)CCCC2C1c1ccccc1` (stereo unspecified), the cell number change amounted to 134%. Further, under setting [1], the AC50 is 5.8 µM [rising, partial curve]. The AC50 under setting [2] is 4.61 µM [rising, single point].
As for `CN(C)c1ccc(/C=C/c2cc[n+](C)cc2)cc1`, the cell number change is -99.4%. In addition, the AC50 under setting [1] is 3.26 µM [falling, full curve]. Besides, the AC50 under setting [2] is 2.31 µM [falling, full curve].
On to `CN(C)C=NC(=O)c1cc(C(=O)c2ccccc2)c[nH]1`, for which the AC50 runs as follows: under setting [1], 3.26 µM [falling, single point]; under setting [2], 3.26 µM [falling, single point].
For `C#Cc1ccc([C@@H]2C=C(C(=O)OCC=C)O[C@H](OCCCCO)C2)cc1`, under setting [2], the AC50 was 23.1 µM [rising, partial curve, poor fit].
On to `O=C(O)c1ccc(NS(=O)(=O)c2cccc3nsnc23)cc1`, for which the cell number change was -49.4%. In addition, the AC50 under setting [1] is 16.4 µM [falling, partial curve, poor fit]. Further, under setting [2], the AC50 was 0.0517 µM [falling, full curve, poor fit].
On to `COc1ccc(NC(=O)/C(=C\c2cc(OC)c(OC)cc2[N+](=O)[O-])NC(=O)c2ccccc2)cc1`, for which the cell number change was found to be 18.5%. In addition, under setting [2], the AC50 was 8.2 µM [rising, partial curve, poor fit].
With `NC(=O)C1Cc2ccccc2CN1C(=O)c1nn(Cc2ccccc2)c(=O)c2ccccc12` (stereo unspecified), the cell number change was 18.9%. The half-maximal activity concentration (AC50) under setting [2] is 14.6 µM [rising, single point].
Consider `CCOc1ccc(NCc2nnc(SCc3ccc(Cl)cc3)n2-c2ccccc2)cc1`, for which the cell number change is -25.2%. Also, under setting [1], the concentration at half-maximal activity (AC50) is 4.61 µM [rising, single point]. The concentration at half-maximal activity (AC50) under setting [2] is 6.51 µM [rising, single point].
On to `Cc1cc(C)nc(NS(=O)(=O)c2ccc(NC(=O)CCN3C(=O)c4ccccc4C3=O)cc2)n1`, for which the cell number change is -20.6%. The AC50 under setting [2] is 0.461 µM [rising, single point].
With `CNC(=O)Cc1csc2ccc(Cl)cc12`, the cell number change is -29.7%. Moreover, under setting [2], the AC50 is 0.461 µM [falling, partial curve].
Take `CC(C)C(=O)NC(NC1CCS(=O)(=O)C1)C(Cl)(Cl)Cl` (stereo unspecified): the cell number change is -24.7%. The AC50 under setting [2] was 29.1 µM [falling, single point].
In the case of `CC(C)NC(=S)N1CCn2c(nc3ccccc32)C1`, the cell number change is -1.23%. Moreover, the AC50 under setting [2] is 0.731 µM [falling, full curve, poor fit].
On to `O=C(CN1C(=O)NC2(CCCC2)C1=O)OCc1ccccc1`, for which the cell number change was 23.3%. The AC50 under setting [2] was 0.00517 µM [rising, full curve, poor fit].
As for `CCCCNC(=O)Oc1c(Br)cc2sc(=O)oc2c1Br`, under setting [2], the AC50 is 3.66 µM [falling, full curve].
As to `Cc1cc(C)cc(NS(=O)(=O)c2ccc(NC(=S)NC(=O)c3cccs3)cc2)c1`, the cell number change is -25.1%. Moreover, the AC50 under setting [2] is 23.1 µM [falling, single point].
In the case of `Cn1c(SC2CCCCC2=O)nnc1-c1ccccc1F` (stereo unspecified), the cell number change was -69.6%. Besides, the AC50 under setting [1] is 9.2 µM [falling, partial curve, poor fit]. Moreover, the AC50 under setting [2] was 0.461 µM [falling, full curve, poor fit].
On to `CCCCNC(=O)N1CCN(S(C)(=O)=O)CC1`, for which the cell number change is -56.9%. The AC50 under setting [2] is 2.82 µM [falling, single point].
For the compound `CCN1CCN(C(c2ccccn2)c2c(NC(=O)c3ccccc3)sc(C)c2C)CC1` (stereo unspecified), the cell number change was -26.7%. Besides, the AC50 under setting [1] was 6.51 µM [rising, partial curve, poor fit]. Also, the half-maximal activity concentration (AC50) under setting [2] is 0.13 µM [rising, full curve, poor fit].
For the compound `C=CCC1(NC(C)c2ccccc2)CCCCC1` (stereo unspecified), the cell number change was -29.9%. Moreover, the concentration at half-maximal activity (AC50) under setting [2] is 0.259 µM [falling, full curve, poor fit].
With `Nc1nc2ccccc2n1CCN1CCCC1`, the cell number change was -157%. Further, the AC50 under setting [1] is 23.1 µM [falling, partial curve]. Under setting [2], the AC50 is 23.1 µM [falling, partial curve].
Turning to `CCOC(=O)/C(C#N)=C/Nc1cc(C(C)(C)C)sc1C(C)=O`, the cell number change was determined as 22.7%. Further, the AC50 under setting [2] was 10.3 µM [rising, partial curve, poor fit].
